Hit rate of the full screen: of about 300,000 compounds, about 3,700 (1.2%) were called active. Inconclusive means that the source gave no clear call. Such entries were picked first, then a sample of the others. Calls follow the shape of the full dose curve; tested in HEK293 cells. Potencies of inconclusive entries are doubtful fits and often do not repeat.
assay: qHTS for Inhibitors of binding or entry into cells for Lassa Virus; conditions: Lassa virus pseudotype entry inhibition, cell reporter; series mostly up to 37.9 µM; also: nearly all actives have a fitted effect of over 50% in size
Potency is read from the fitted curve at half-maximal effect.

| Compound | Potency |
| --- | --- |
| O=[N+]([O-])c1nn(-c2ccc3c(c2)OCCO3)n(O)c1=NCc1ccc(F)cc1Cl | inconclusive: 0.891 µM [activator, full curve, poor fit] |
| Cc1ccccc1SCC(=O)N/N=C/c1ccc(F)cc1 | inconclusive: 3.98 µM [inhibitor, full curve, poor fit] |
| Cc1ccc(/C=C(/C#N)C(=O)NC(=O)Oc2ccccc2)cc1 | inconclusive: 3.66 µM [activator, single point] |
| O=C(c1cccc(S(=O)(=O)NCc2ccccc2)c1)N1CCN(c2ccc(F)cc2)CC1 | inconclusive: 14.1 µM [inhibitor, partial curve, poor fit] |
| O=C(Nc1nc(-c2ccccc2)nc2ccccc12)c1ccc(F)cc1 | inconclusive: 35.5 µM [inhibitor, single point] |
| CCOc1ccccc1NC1=CC(=O)CC(c2ccccc2)C1 (stereo not given) | inconclusive: 35.5 µM [inhibitor, single point] |
| Clc1ccc(OCCCCN2CCCCC2)cc1 | inactive |
| CC(=O)O/N=C/c1c(N2CCOCC2)n(C)c2ccccc12 | inconclusive: 25.9 µM [inhibitor, single point] |
| Cc1ccc(C)c(CSc2cn(CC(=O)N3CCCC3)c3ccccc23)c1 | inconclusive: 15.8 µM [inhibitor, partial curve, poor fit] |
| Oc1ccccc1/C=N/NC(=S)NC1CC2CC1C1C=CCC21 (stereo not given) | inconclusive: 7.08 µM [inhibitor, partial curve, poor fit] |
| COc1ccc2cc(-c3nc(-c4ccc(N(C)C)cc4)no3)c(=O)oc2c1 | inactive |
| CN(Cc1ccccc1)c1ccc2cc(S(=O)(=O)N3CCCCC3)ccc2n1 | inconclusive: 3.16 µM [inhibitor, single point] |
| COc1cccc(N2CC(C(=O)NC3CCCCC3)CC2=O)c1 (stereo not given) | inconclusive: 35.5 µM [activator, single point] |
| O=C(c1ccc(Cl)nc1)N1CCC(Cc2ccccc2)CC1 | inactive |
| Cc1cc(C)n2nc(N)nc2n1 | inactive |
| CCOc1ccc(NC(=O)CCc2c(C)nc3c4c(C)cc(C)nc4nn3c2C)cc1 | inconclusive: 6.31 µM [activator, single point] |
| CC/C(C)=N/NC(=O)c1[nH]c2ccc(C)cc2c1-c1ccccc1 | inconclusive: 35.5 µM [inhibitor, partial curve, poor fit] |
| Clc1ccccc1C=NNc1ccccn1 | inconclusive: 10 µM [inhibitor, partial curve, poor fit] |
| COCCN(C(=O)Cc1cccs1)C(C(=O)NCc1ccc(OC)cc1)c1ccc(OC)cc1 (stereo not given) | inconclusive: 8.2 µM [inhibitor, partial curve, poor fit] |
| CN(C)S(=O)(=O)c1cccc(NC(=O)c2cccc(S(=O)(=O)N3CCCCCC3)c2)c1 | inconclusive: 35.5 µM [inhibitor, single point] |
| CC(C)(C)c1ccc(OCC(=O)Nc2ccncc2)cc1 | inconclusive: 15.8 µM [activator, single point] |
| O=S(Cc1ccc(Br)cc1)Cc1nnc(SCc2ccc(Cl)cc2)n1-c1ccccc1 (stereo not given) | active: 12.6 µM |
| Cc1nc2cc(Cl)ccc2n1CCO | inconclusive: 6.51 µM [inhibitor, single point] |

Grouped by structure: the entries above with two or more sulfur atoms

| Compound | Potency |
| --- | --- |
| CN(C)S(=O)(=O)c1cccc(NC(=O)c2cccc(S(=O)(=O)N3CCCCCC3)c2)c1 | inconclusive: 35.5 µM [inhibitor, single point] |
| O=S(Cc1ccc(Br)cc1)Cc1nnc(SCc2ccc(Cl)cc2)n1-c1ccccc1 (stereo not given) | active: 12.6 µM |

(listing goes on)

| Compound | Potency |
| --- | --- |
| CCOc1cc(-c2cc(-c3ccc(C)o3)nc(N)c2C#N)ccc1O | inconclusive: 20.6 µM [inhibitor, single point] |
| CCOC(=O)c1c(C)nc2ccccn12 | inactive |
| Cc1c(Cl)cccc1NC(=S)N(CCCN1CCOCC1)Cc1ccco1 | inactive |
| COc1ccc(NC(=O)COc2ccccc2C(=O)NCC(c2ccccc2)N(C)C)cc1Cl (stereo not given) | active: 11.2 µM |
| Cc1ccc(S(=O)(=O)N2CCN(C(=O)c3ccccc3Cc3ccccc3)CC2)c(C)c1 | inconclusive: 31.6 µM [inhibitor, single point] |
| CCCN1C(=O)c2ccccc2NC1c1ccc(OC)cc1O (stereo not given) | active: 1.58 µM |
| c1ccc(N2CCN(c3cnccn3)CC2)nc1 | inconclusive: 25.9 µM [activator, partial curve, poor fit] |
| O=C1CC(Nc2ccc(N3CCOCC3)cc2)C(=O)N1c1ccccc1 (stereo not given) | inactive |
| c1ccc(Cn2c(Sc3nnnn3-c3ccccc3)nnc2-c2ccccc2)cc1 | inactive |
| O=C(Nc1ccccc1Cl)C1CCCN(c2ncnc3c2nc2n3CCCCC2)C1 (stereo not given) | inconclusive: 8.91 µM [inhibitor, partial curve, poor fit] |
| CCc1ccc(NC(=S)N2CCN(c3cccc(C(F)(F)F)c3)CC2)cc1 | inconclusive: 16.4 µM [inhibitor, partial curve, poor fit] |
| CSc1ccc(/C=N/NC(=O)c2cc(O)cc(O)c2)cc1 | inconclusive: 35.5 µM [inhibitor, partial curve, poor fit] |
| Cc1cc(OCC(O)CN2C(C)CCCC2C)ccc1C(C)C (stereo not given) | inconclusive: 35.5 µM [inhibitor, partial curve, poor fit] |
| O=C(NCc1cccnc1)c1cccc(S(=O)(=O)N2CCCC2)c1 | inactive |
| CCC12CN3CC(CC)(CN(C1)C3c1c[nH]c3ccccc13)C2=O (stereo not given) | inconclusive: 35.5 µM [inhibitor, single point] |
| CCc1ccc(NC(=O)C2(c3ccccc3)CC2(Cl)Cl)cc1 (stereo not given) | active: 16.4 µM |
| Cc1nc2c(-c3ccccc3)c(C)nn2c(N)c1-c1ccccc1 | inconclusive: 1.26 µM [activator, single point] |
| CCOC(=O)N1CCN(C(=O)C2CCN(Cc3cccc(OCc4ccccc4)c3)CC2)CC1 | inactive |
| C=CCNC(=O)COc1c(C)ccc(C)c1C | inconclusive: 5.62 µM [activator, single point] |
| O=c1[nH]c(-c2ccccn2)cc2ccccc12 | inconclusive: 1.84 µM [activator, partial curve] |
| Cc1ccn2cc(C(=O)NCc3ccco3)nc2c1 | inconclusive: 0.891 µM [inhibitor, full curve, poor fit] |
| CN(Cc1ccc(F)cc1)C(=O)CCc1nnc(-c2ccccc2)o1 | inactive |

— PubChem BioAssay AID540256 (National Center for Advancing Translational Sciences (NCATS), 2011)
